# According to patent US20240124517 (published 2024):
# Square brackets hold non-standard residues; d marks the D form. * marks the point of attachment. Fmoc = O=C(OCC1c2ccccc2-c2ccccc21)*; NMeF = CN[C@@H](Cc1ccccc1)C(=O)O; NMeL = CN[C@@H](CC(C)C)C(=O)O; NMeV = CN[C@H](C(=O)O)C(C)C; NMeA = CN[C@@H](C)C(=O)O; Boc = CC(C)(C)OC(=O)*; Aib = CC(C)(N)C(=O)O; Sar = CNCC(=O)O; tBu = CC(C)(C)*
# Experiments:
# [1] = general procedure: Fmoc solid-phase peptide synthesis; aa2-019-resin; details: whole synthesis, on resin loading (Fmoc quantitation)
# [2] = general procedure: Fmoc solid-phase peptide synthesis; CTC resin (Trt(2-Cl)resin), dipeptide-supporting; details: whole synthesis; for crude LC-MS purity: LCMS area % of the isolating reaction liquid
# [3] = general procedure: Fmoc solid-phase peptide synthesis; aa2-026-resin; details: whole synthesis, on resin loading (Fmoc quantitation)
# [4] = general procedure: Fmoc solid-phase peptide synthesis; 2-chlorotrityl; details: whole synthesis, Fmoc quantitation of peptide-resin vs starting resin
# [5] = general procedure: Fmoc solid-phase peptide synthesis; aa2-012-resin; details: whole synthesis, on resin loading (Fmoc quantitation)
# [6] = general procedure: Fmoc solid-phase peptide synthesis; aa2-028-resin; details: whole synthesis, on resin loading (Fmoc quantitation)
# [7] = general procedure: Fmoc solid-phase peptide synthesis; aa2-004-resin; details: whole synthesis, on resin loading (Fmoc quantitation)
# [8] = general procedure: Fmoc solid-phase peptide synthesis; aa2-020-resin; details: whole synthesis, on resin loading (Fmoc quantitation)
# [9] = general procedure: Fmoc solid-phase peptide synthesis; aa2-006-resin; details: whole synthesis, on resin loading (Fmoc quantitation)
# [10] = general procedure: Fmoc solid-phase peptide synthesis; aa2-009-resin; details: whole synthesis, on resin loading (Fmoc quantitation)
# [11] = general procedure: Fmoc solid-phase peptide synthesis; aa2-013-resin; details: whole synthesis, on resin loading (Fmoc quantitation)
# [12] = general procedure: Fmoc solid-phase peptide synthesis; aa2-015-resin; details: whole synthesis, on resin loading (Fmoc quantitation)
# [13] = general procedure: Fmoc solid-phase peptide synthesis; aa2-001-resin; details: whole synthesis, on resin loading (Fmoc quantitation)
# [14] = general procedure: Fmoc solid-phase peptide synthesis; aa2-005-resin; details: whole synthesis, on resin loading (Fmoc quantitation)
# [15] = general procedure: Fmoc solid-phase peptide synthesis; Sieber; details: whole synthesis, Fmoc quantitation of peptide-resin vs starting resin
# [16] = general procedure: Fmoc solid-phase peptide synthesis; aa2-024-resin; details: whole synthesis, on resin loading (Fmoc quantitation)
# [17] = general procedure: Fmoc solid-phase peptide synthesis; aa2-025-resin; details: whole synthesis, on resin loading (Fmoc quantitation)
# [18] = general procedure: Fmoc solid-phase peptide synthesis; aa2-027-resin; details: whole synthesis, on resin loading (Fmoc quantitation)
# [19] = general procedure: Fmoc solid-phase peptide synthesis; aa2-014-resin; details: whole synthesis, on resin loading (Fmoc quantitation)
# peptide synthesis = details: whole synthesis
# [20] = general procedure: Fmoc solid-phase peptide synthesis; aa2-017-resin; details: whole synthesis, on resin loading (Fmoc quantitation)
substance,measurement,setting,value
Fmoc-[NMeA]L[Sar][NMeA]A[NMeV]G-OH,crude yield,[1],50.1%
same,crude LC-MS purity,[2],100 area %
Fmoc-[NMeA]L[NMeL]A[NMeA]GY(tBu)-OH,crude yield,[3],53.0%
same,crude LC-MS purity,[2],98.1 area %
Fmoc-MeAla-McLeu-Ala-MeGly-MePhe-Leu-McLeu-Ala-Ala-Pro-OH,crude yield,[4]; scale 0.0389 mmol,64.3%
same,crude LC-MS purity,[2],98.3 area %
Fmoc-MeAla-MeLeu-Gly-MeVal-Asp-NMe2,crude yield,[5],78.6%
same,crude LC-MS purity,[2],94.7 area %
Fmoc-MeAla-Leu-McLeu-Ala-Gly-MePhe-MeAla-Leu-MeAla-Phe-Gly-OH,crude yield,[6],47.7%
same,crude LC-MS purity,[2],100 area %
Fmoc-MeAla-MeLeu-Ala-MeLeu-MePhe-Leu-MeAla-Ala-MeGly(cPent)-MeAsp-NMe2,crude yield,[4]; scale 0.0373 mmol,71.0%
same,crude LC-MS purity,[2],96.3 area %
"(3S,6S,9S,12S,15S,18S,21S,24S,30S,33S,36S)-21-benzyl-3,6,10,15,16,22,24,28,33,34-decamethyl-9,12,18,30-tetrakis(2-methylpropyl)-1,4,7,10,13,16,19,22,25,28,31,34-dodecazabicyclo[34.3.0]nonatriacontane-2,5,8,11,14,17,20,23,26,29,32,35-dodecaone",isolated mass,[2]; scale 0.0389 mmol,23.8 mg
same,isolated yield,[2]; scale 0.0389 mmol,52%
Fmoc-MeAla-Leu-McLeu-Ala-MeGly(cPent)-MeAsp-NMe2,crude yield,[4]; scale 0.0376 mmol,80.2%
same,crude LC-MS purity,[2],98.0 area %
Fmoc-MeAla-Leu-MeGly-MeAla-Leu-MePhe-MeAla-Gly-Leu-MeLeu-Ala-MeChg-MeAsp-pip,crude yield,[7],85.1%
same,crude LC-MS purity,[2],97.9 area %
Fmoc-MeAla-Leu-MeLeu-Ala-Gly-MePhe-MeAla-Leu-Gly-D-MeVal-MeAsp-NMe2,crude yield,[8],78.1%
same,crude LC-MS purity,[2],97.8 area %
Fmoc-MeAla-Leu-MeGly-MeAla-Ala-MeGly(cPent)-MeAsp-NMe2,crude yield,[9],79.1%
same,crude LC-MS purity,[2],98.5 area %
Fmoc-MeAla-Leu-MeGly-MeAla-Leu-MePhe-MeAla-Gly-Leu-MeLeu-MeAla-Ala-MeGly(cPent)-MeAsp-NMe2,crude yield,[4]; scale 0.0379 mmol,81.9%
same,crude LC-MS purity,[2],97.2 area %
Fmoc-MeAla-Leu-MeGly-MeAla-Leu-MePhe-Ala-MeChg-D-3-MeAbu-OH,crude yield,[10],82.2%
same,crude LC-MS purity,[2],100 area %
Fmoc-MeAla-Leu-MeLeu-Ala-MePhe-Ala-MeLeu-Gly-MeAsp-NMe2,crude yield,[11],81.0%
same,crude LC-MS purity,[2],96.2 area %
Fmoc-MeAla-MeLeu-Gly-bAla(2-Me2)-D-3-MeAbu-OH,crude yield,[12],69.6%
same,crude LC-MS purity,[2],98.3 area %
Fmoc-MeAla-MeLeu-Ala-MeVal-MeAsp-pip,crude yield,[13],84.9%
same,crude LC-MS purity,[2],96.9 area %
Fmoc-MeAla-Leu-MeGly-Ala-Leu-MePhe-Ala-Pro-Ala-McLeu-MeAsp-pip,crude yield,[14],83.1%
same,crude LC-MS purity,[2],97.6 area %
"(3S,6S,12S,15S,18S,21S,24S,27S,30S,33S)-27-benzyl-6,7,10,13,15,19,21,22,28,30-decamethyl-3,18,24-tris(2-methylpropyl)-12-propan-2-yl-1,4,7,10,13,16,19,22,25,28,31-undecazabicyclo[31.3.0]hexatriacontan-2,5,8,11,14,17,20,23,26,29,32-undecaone",isolated mass,[2]; scale 0.0379 mmol,7.07 mg
same,isolated yield,[2]; scale 0.0379 mmol,17%
Fmoc-[NMeA]L[Sar][NMeA]L[NMeF][NMeA]GL[NMeL][NMeA]AAP-OH,crude yield,[4]; scale 0.0391 mmol,77.2%
same,crude LC-MS purity,[2],100 area %
Fmoc-MeAla-Leu-Ala-MeVal-MeAsn-pip,crude yield,[15]; scale 0.0535 mmol,97.0%
same,crude LC-MS purity,[2],95.0 area %
Fmoc-MeAla-Leu-MeGly-Ala-Leu-MePhe-MeAla-Gly-MePhe-Pro-Ala-MeLeu-Gly-MeVal-D-MeAsp-NMe2,crude yield,[4]; scale 0.0395 mmol,83.6%
same,crude LC-MS purity,[2],98.0 area %
Fmoc-[NMeA]L[NMeA]FP-OH,crude yield,[16],77.9%
same,crude LC-MS purity,[2],97.7 area %
Fmoc-[NMeA]L[Sar][NMeA]L[NMeF][NMeA]GL[NMeL]A[NMeL][Aib]-OH,crude yield,[4]; scale 0.0299 mmol,80.0%
same,crude LC-MS purity,[2],100 area %
"(2S,5S,8S,11S,14S,20S,23S,26S,29S,32S,35S)-14-benzyl-32-cyclopentyl-N,N,1,2,7,11,13,19,20,25,26,29,31,34-tetradecamethyl-5,8,23-tris(2-methylpropyl)-3,6,9,12,15,18,21,24,27,30,33,37-dodecaoxo-1,4,7,10,13,16,19,22,25,28,31,34-dodecazacycloheptatriacontane-35-carboxamid",isolated mass,[2]; scale 0.0375 mmol,25.6 mg
same,isolated yield,[2]; scale 0.0375 mmol,54%
Fmoc-[NMeA]L[Sar]AL[NMeF]AP[NMeA]K(Boc)P-OH,crude yield,[17],76.0%
same,crude LC-MS purity,[2],100 area %
Fmoc-[NMeA]L[NMeL]AAP-OH,crude yield,[4]; scale 0.0391 mmol,74.6%
same,crude LC-MS purity,[2],99.0 area %
Fmoc-MeAla-Leu-MeGly-MeAla-Ala-MeVal-MeAsn-pip,crude yield,[15]; scale 0.0527 mmol,94.9%
same,crude LC-MS purity,[2],95.0 area %
Fmoc-[NMeA]L[NMeL]A[NMeF]G[NMeL]AA-OH,crude yield,[18],51.8%
same,crude LC-MS purity,[2],100 area %
Fmoc-MeAla-Leu-MeLeu-MeAla-Gly-Aib-MeAsp-NMe2,crude yield,[19],79.1%
same,crude LC-MS purity,[2],97.2 area %
Fmoc-MeAla-Leu-McLeu-Ala-MePhe-Gly-MeAla-Leu-Ala-MeLeu-Gly-bAla(2-Me2)-MeAsp-NMe2,crude yield,[4]; scale 0.0411 mmol,81.5%
same,crude LC-MS purity,[2],97.9 area %
Fmoc-MeAla-Leu-MeGly-Ala-Leu-MePhe-Ala-Pro-Ala-MeVal-MeAsn-pip,crude yield,[15]; scale 0.0526 mmol,93.9%
same,crude LC-MS purity,[2],98.8 area %
Fmoc-MeAla-Leu-McLeu-Ala-MePhe-Gly-MeAla-Leu-MePhe-MeAla-Ala-MeLeu-Ala-MeVal-MeGly-OH,crude yield,[4]; scale 0.0371 mmol,62.8%
same,crude LC-MS purity,[2],100 area %
Fmoc-[NMeA]L[NMeL]A[NMeF]G[NMeA]L[NMeF]PA[NMeL][NMeA]S(tBu)G-OH,crude yield,[4]; scale 0.0253 mmol,70.3%
same,crude LC-MS purity,[2],98.8 area %
Fmoc-MeAla-Leu-McLeu-Ala-MePhe-Gly-MeAla-Leu-Ala-MeLeu-MeAla-Asn(Trt)-Gly-OH,crude yield,[4]; scale 0.0258 mmol,66.6%
same,crude LC-MS purity,[2],100 area %
H-MeAla-Leu-MeGly-Ala-MePhe-Leu-MeAla-Leu-Gly-MeVal-MeAsp-pip,isolated yield,peptide synthesis,66%
"(3S,9S,12S,18S,21S,24S,27S,30S,33S)-18,33-dibenzyl-1,3,4,10,12,13,21,22,28,30-decamethyl-9,24,27-tris(2-methylpropyl)-1,4,7,10,13,16,19,22,25,28,31-undecazacyclotritriacontan-2,5,8,11,14,17,20,23,26,29,32-undecaone",isolated mass,[2]; scale 0.025 mmol,7.03 mg
same,isolated yield,[2]; scale 0.025 mmol,25%
Fmoc-[NMeA]L[Sar][NMeA]L[NMeF]A[NMeV]P-OH,crude yield,[20],82.7%
same,crude LC-MS purity,[2],100 area %
Fmoc-[NMeA]L[Sar]AL[NMeF][NMeA]G[NMeF][NMeA]A[NMeL][NMeA]GV-OH,crude yield,[4]; scale 0.0276 mmol,77.3%
same,crude LC-MS purity,[2],99.6 area %
